The source of these data is patent US20240366602A1, “COMBINATION THERAPY OF APELIN RECEPTOR AGONIST AND GLP-1 RECEPTOR AGONIST FOR TREATING A DISEASE OR CONDITION ASSOCIATED WITH WEIGHT GAIN” (BioAge Labs, Inc., priority 2023, published 2024).

For one data set, the system named is Diet-Induced Obese Mice. The experiment in a line: Combination of BAL-1480 and tirzepatide in obese mice (Example 6). Type of data set: in vivo. An excerpt: To measure the effect of another APJ agonist, BAL-1480, compound 13 as described by Narayanan et al. in J. Med. Chem. 2021, 64, 3006-3025, on weight loss or body composition in Diet-Induced Obese Mice by GLP-1 receptor agonist tirzepatide.
Measurement used and justifications include: body weight, food intake, water intake, non-fasted blood glucose, and body composition by Echo-MRI.
C57BL/6 obese male mice from Jax and housed to 9-months old were fed with a lean control diet D12450B (10 kcal % fat) and a diet-induced obesity (DIO) diet D12492 (60 kcal % fat) (Research Diets, Inc.).
Male DIO mice were acclimated to a single house cage for two weeks. Body weight, morning non-fasted blood glucose, and body composition were measured for randomization. Target DIO weight range at randomization 51.4-67.5 g. After randomization, mice were given treatment as the following groups (All groups were paired with relative dosing s.c. vehicle (20 mM citrate buffer at pH 7.0, 4 mL/kg) or drinking water with addition of 5 mM Sucralose (5 mM Sucralose, pH 3) to insure water consumption despite possible taste alterations from drug).
Study groups • 0. Lean ctrl, n=7 • 1. DIO+VEH (vehicle), n=7 • 2. […]
Body weight, food intake, water intake, body composition and morning non-fasted blood glucose were measured during the entire study. […]
Data were expressed as mean±SEM and statistically analyzed by 1-way or 2-way ANOVA

In data set [1] the test system is Diet-Induced Obese (DIO) mice. The experiment in a line: Pilot study of BGE-105 in aged DIO mice treated with tirzepatide (Example 2). It is filed as in vivo.

`COc1cccc(OC)c1-c1cc(C(=O)N[C@@H](CCN2CCCCC2)CC(=O)NC2CCC2)nn1C1CCCC1` [BAL-1480]: in the data set on Diet-Induced Obese Mice (day 15, BAL-1480 monotherapy vs VEH group), the Rectal temperature entry was “dose-dependent increase of body temperature”. Also, the Water consumption result with Diet-Induced Obese Mice (entire curve up to 18 days, BAL-1480 groups vs tirzepatide group) is “significantly lower than the tirzepatide group”.

On to tirzepatide, for which the Food intake result in data set [1] (beginning of the study, recovered after about 2 weeks) is “lower food intake at the beginning of the study”. Besides, the Daily water intake entry in data set [1] (tirzepatide 30 and 10 nmol/kg vs 3 nmol/kg groups) was “lower water intake”.
